PubChem BioAssay AID493246 | Drosophila RNAi Screening Center, 2011

Purpose: 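Genome-wide search for dsRNAs that reduce cell number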 (primary screen)
Cell system: Drosophila Kc and S2R+ cells
Knock-down reagent: long dsRNA against Drosophila genes
Detection: 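Cell number per well after knock-down, printed as raw plate values; calls were based on per-plate z-scores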
Reading the numbers: Kc cell number and S2R+ cell number: higher = more cells remaining
Call rule: 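Counted as a hit if cell number falls by a z-score of at least 3 within its plate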
The deposit covers about 21,000 reagents; below is an unselected part of those with a known target gene and a result. In the full data, 429 (2%) were called active. 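Values are raw and not normalised between plates; calls rest on per-plate z-scores that were not deposited.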 A number with no mark means an inactive call. The numbers tell different reagents against one gene apart. A plus sign joins genes that one reagent is predicted to hit. No sequences are given here. Not stated in the record: the amount of reagent, the time to read-out.

| gene | reagent | Kc cell number, rep 1 | Kc cell number, rep 2 | S2R+ cell number, rep 1 | S2R+ cell number, rep 2 |
| --- | --- | --- | --- | --- | --- |
| CG17221 (GeneID 33521) | 1 | 1.53e6 | 1.51e6 | 1.15e6 | 1.24e6 |
| CG2217 + CG42740 | 1 | 5.21e5 | – | 7.81e5 | – |
| CG14731 (GeneID 41442) | 1 | 1.78e6 | 1.81e6 | 1.39e6 | 1.54e6 |
| plh (GeneID 40615) | 1 | 1.80e6 | 1.76e6 | 1.35e6 | 1.46e6 |
| pigs (GeneID 31596) | 1 | 1.12e6 | 1.48e6 | 1.14e6 | 1.20e6 |
| pigs (GeneID 31596) | 2 | 1.55e6 | 1.51e6 | 1.02e6 | 1.15e6 |
| pigs (GeneID 31596) | 3 | 1.53e6 | 1.50e6 | 1.00e6 | 1.08e6 |
| RabGGTa (GeneID 40617) | 1 | 1.58e6 | 1.63e6 | 1.22e6 | 1.33e6 |
| nxf4 (GeneID 40884) | 1 | 1.58e6 | 1.74e6 | 1.24e6 | 1.30e6 |
| CG10063 (GeneID 38764) | 1 | 1.52e6 | 1.63e6 | 1.13e6 | 1.19e6 |
| Sar1 (GeneID 42615) | 1 | 1.81e6 | 1.80e6 | 1.23e6 | 1.30e6 |
| alpha-Man-Ib (GeneID 43436) | 1 | 5.17e5 | – | 8.08e5 | – |
| CG14410 (GeneID 32409) | 1 | 1.63e6 | 1.62e6 | 1.22e6 | 1.29e6 |
| Ppat-Dpck (GeneID 38647) | 1 | 1.62e6 | 1.67e6 | 1.15e6 | 1.19e6 |
| CG33958 (GeneID 37088) | 1 | 1.49e6 | 1.60e6 | 1.20e6 | 1.32e6 |
| CG33958 (GeneID 37088) | 2 | 1.56e6 | 1.59e6 | 1.15e6 | 1.24e6 |
| Dhc62B (GeneID 38226) | 1 | 1.38e6 | 1.19e6 | 1.12e6 | 1.28e6 |
| CG14187 (GeneID 40199) | 1 | 1.46e6 | 1.36e6 | 1.36e6 | 1.42e6 |
| Mur89F (GeneID 42080) | 1 | 1.36e6 | 1.42e6 | 1.24e6 | 1.36e6 |
| FucTD (GeneID 38164) | 1 | 1.49e6 | 1.37e6 | 1.06e6 | 1.30e6 |
| Vps29 (GeneID 33295) | 1 | 1.31e6 | 1.31e6 | 9.97e5 | 9.09e5 |
| CG10555 (GeneID 31771) | 1 | 1.49e6 | 1.42e6 | 9.50e5 | 1.02e6 |
| Mbs (GeneID 49070) | 1 | 1.49e6 | 1.61e6 | 1.14e6 | 1.31e6 |
| Mbs (GeneID 49070) | 2 | 1.67e6 | 1.67e6 | 1.32e6 | 1.35e6 |
| Mbs (GeneID 49070) | 3 | 1.56e6 | 1.73e6 | 1.25e6 | 1.43e6 |
| CG6067 (GeneID 31529) | 1 | 1.49e6 | 1.48e6 | 1.10e6 | 1.16e6 |
| Hsp70Aa + Hsp70Bb + Hsp70Ba + 3 more | 1 | 1.83e6 | 1.84e6 | 8.85e5 | 1.06e6 |
| CG10139 (GeneID 36626) | 1 | 1.41e6 | 1.47e6 | 1.19e6 | 1.23e6 |
| CG7218 (GeneID 42165) | 1 | 1.59e6 | 1.62e6 | 1.30e6 | 1.27e6 |
| Srp19 (GeneID 38815) | 1 | 1.62e6 | 1.69e6 | 1.24e6 | 1.24e6 |
| Prosbeta4R2 (GeneID 33451) | 1 | 1.34e6 | 1.34e6 | 8.22e5 | 8.74e5 |
| CG42750 (GeneID 35090) | 1 | 2.56e5 (active) | 2.87e5 | 3.67e5 | 4.65e5 |
| CG42750 (GeneID 35090) | 2 | 1.79e6 | 1.72e6 | 1.24e6 | 1.38e6 |
| CG42750 (GeneID 35090) | 3 | 1.85e6 | 1.88e6 | 1.43e6 | 1.72e6 |
| mus304 (GeneID 40003) | 1 | 1.34e6 | 1.40e6 | 1.26e6 | 1.41e6 |
| Afg3l2 (GeneID 39922) | 1 | 1.64e6 | 1.69e6 | 9.30e5 | 1.05e6 |
| RpS3 (GeneID 42761) | 1 | 8.00e5 (active) | 9.19e5 | 7.47e5 | 8.54e5 |
| betaGlu (GeneID 43746) | 1 | 5.03e5 | – | 7.25e5 | – |
| lobo (GeneID 4379864) | 1 | 1.69e6 | 1.61e6 | 9.80e5 | 1.14e6 |
| lobo (GeneID 4379864) | 2 | 1.61e6 | 1.53e6 | 1.06e6 | 1.12e6 |
| CG14106 (GeneID 39506) | 1 | 1.26e6 | 1.29e6 | 1.27e6 | 1.37e6 |
| SRPK (GeneID 36706) | 1 | 1.07e6 | 1.06e6 | 8.40e5 | 6.28e5 |
| Coq4 + frc | 1 | 1.56e6 | 1.45e6 | 1.13e6 | 1.33e6 |
| Coq4 + frc | 2 | 1.56e6 | 1.78e6 | 1.39e6 | 1.60e6 |
| CG31897 (GeneID 319011) | 1 | 1.44e6 | 1.47e6 | 9.87e5 | 1.09e6 |
| CG32204 (GeneID 317913) | 1 | 1.64e6 | 1.61e6 | 9.70e5 | 1.18e6 |
| CG31693 (GeneID 318887) | 1 | 5.18e5 | – | 7.45e5 | – |
| CG31468 (GeneID 251937) | 1 | 1.23e6 | 1.47e6 | 1.12e6 | 1.13e6 |
| Desi (GeneID 41292) | 1 | 1.46e6 | 1.46e6 | 1.24e6 | 1.38e6 |
| CG11211 (GeneID 35545) | 1 | 1.57e6 | 1.68e6 | 1.44e6 | 1.52e6 |
| Ir7c (GeneID 31692) | 1 | 1.53e6 | 1.51e6 | 1.05e6 | 1.23e6 |
| Lrr47 (GeneID 34449) | 1 | 1.32e6 | 1.21e6 | 1.04e6 | 1.02e6 |
| snu (GeneID 43391) | 1 | 5.91e5 | – | 8.62e5 | – |
| CG34299 (GeneID 5740430) | 1 | 1.29e6 | 1.66e6 | 1.07e6 | 1.11e6 |
| aop (GeneID 33392) | 1 | 1.18e6 (active) | 1.12e6 | 4.90e5 | 6.19e5 |
| danr (GeneID 43020) | 1 | 1.59e6 | 1.72e6 | 1.03e6 | 1.10e6 |
| CG3594 (GeneID 37964) | 1 | 1.36e6 | 1.42e6 | 9.17e5 | 8.67e5 |
| mthl1 (GeneID 32637) | 1 | 1.51e6 | 1.51e6 | 1.07e6 | 1.11e6 |
| CG33263 (GeneID 2768952) | 1 | 1.33e6 | 1.47e6 | 1.29e6 | 1.37e6 |

Copied from above, 5 entries:
| gene | reagent | Kc cell number, rep 1 | Kc cell number, rep 2 | S2R+ cell number, rep 1 | S2R+ cell number, rep 2 |
| --- | --- | --- | --- | --- | --- |
| plh (GeneID 40615) | 1 | 1.80e6 | 1.76e6 | 1.35e6 | 1.46e6 |
| pigs (GeneID 31596) | 1 | 1.12e6 | 1.48e6 | 1.14e6 | 1.20e6 |
| pigs (GeneID 31596) | 2 | 1.55e6 | 1.51e6 | 1.02e6 | 1.15e6 |
| pigs (GeneID 31596) | 3 | 1.53e6 | 1.50e6 | 1.00e6 | 1.08e6 |
| RabGGTa (GeneID 40617) | 1 | 1.58e6 | 1.63e6 | 1.22e6 | 1.33e6 |
